For at least one compound, name, drawing or mass did not settle the structure.
What was measured:
[1] = system: pCREB in mouse cortical neurons (E17, DIV6); experiment: Nuclear pCREB in midi-GAGR-treated neurons after signaling inhibitors; type: cell-based; conditions: inhibitor 6 h (SU5402 4 μM, staurosporine 3 nM, U0126 10 μM, LY294002 20 μM, KN-62 10 μM, PF-573228 1 μM), then 1 μM midi-GAGR 48 h
Procedure: To analyze the effect of polysaccharides on neurite outgrowth, primary mouse cortical neurons were treated with vehicle (H2O) or 1 μM of dextran, alginate, or midi-GAGR, 0.01 μM of HA-GAGR, or 0.1 μM of LA-GAGR for 2 days prior to immunocytochemistry using anti-α-tubulin antibody and secondary Alexa488nm antibody. An etched grid coverslip containing 200 numbered boxes was used to select neurons objectively for image acquisition and analysis. A total of 24 boxes were randomly selected per treatment group. All the neurons having total neurite length longer than 4 times of the diameter of neuron cell body were chosen for image analysis. The total length of the neurites of each neuron was measured using Metamorph and used to calculate average total neurite length. […] The intensity of the staining of nuclear pCREB was measured using Metamorph and used to calculate average intensity. In addition, the phosphorylation of CREB in the cytosols of mouse cortical neurons treated with polysaccharides were detected by immunoblotting. […] The protein bands on blots recognized by anti-pCREB (Santa Cruz Biotechnologies) and anti-CREB antibodies were detected on Amersham Hyperfilm™ ECL films (GE Healthcare Life Science) using SuperSignal® West Pico Chemiluminescent Substrate (Thermo Scientific). […]

[2] = system: Rat embryonic cortical neurons; experiment: Neuritic atrophy caused by 4-HNE, Scholl ring analysis; type: cell-based; conditions: pre-treatment 2 days (1 μM; ascorbate 100 μM), then 25 μM 4-HNE 1 day
Procedure: Rat embryonic cortical neurons were treated with mock (FIG. 11C), 1 μM HA-GAGR (high acyl gellan gum), 1 μM dextran, 100 μM ascorbate or 1 μM midi-GAGR (FIG. 13A) for 2 days and then with 25 μM 4-hydroxynonenal (4-HNE), a lipid peroxide, for 1 day. After fixation, neurons were immunostained with anti-synaptophysin antibody (green) and rhodamine-phalloidin (actin: red). Scholl ring analysis was performed.

| SMILES | average intensity of pCREB in midi-GAGR-treated neurons after inhibitor pre-treatment [1] | neurites in the presence of 4-HNE (neuritic atrophy) [2] |
| --- | --- | --- |
| O=c1cc(N2CCOCC2)oc2c(-c3ccccc3)cccc12 [LY294002] | decreased slightly but still statistically significantly | – |
| O=C1O[C@H]([C@@H](O)CO)C(O)=C1O [ascorbate] | – | lost neuritis |

Source: patent US10792301B2, “Therapeutic polysaccharide midi-GAGR and related materials and methods” (priority 2015, dated 2020)
